Record: PubChem BioAssay AID1053208 (Peter MacCallum Cancer Centre, 2014)

Purpose: 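Synthetic lethal interactions between gene loss and doxorubicin in osteosarcoma cells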 (primary screen)
System: mouse osteosarcoma cells, early-passage culture from an engineered mouse model of fibroblastic bone tumour
Reagents: siRNA pool against mouse genes, 40 nM
Time to read-out: about 120 h (48 h before drug, then 72 h with drug)
Challenge: doxorubicin 100 nM for 72 h, roughly 30-40% inhibitory dose
Read-out: 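Viability read as ATP luminescence after 72 h of 100 nM doxorubicin or none, duplicate wells averaged, scaled to non-targeting siRNA, then expressed as robust z-scores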
Reading the numbers: viability z-score with doxorubicin and doxorubicin viability vs non-targeting: higher = more viable cells under doxorubicin; viability z-score without drug: higher = more viable cells with knock-down alone; z-score of drug to no-drug ratio: higher = less drug sensitisation by knock-down
Call rule: 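a pool counts as active when its viability z-score with doxorubicin is -2 or below and its z-score without drug lies between -2 and 2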
In all, the deposit lists about 17,000 reagents; below is a random part of them. 788 of them (4.7%) were called active. 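Calls rest on z-score classes alone; an extra cut-off of viability at most 70% of control was not applied to them.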 Entries without a mark were called inactive. The numbers tell different reagents against one gene apart. No sequences are given here.

| target | pool no. | combined z-score class | viability z-score with doxorubicin | viability z-score without drug | z-score of drug to no-drug ratio | doxorubicin viability vs non-targeting |
| --- | --- | --- | --- | --- | --- | --- |
| Kctd13 (potassium channel tetramerisation domain containing 13) | 1 | no change with or without drug | 0 | -0.34 | 0.34 | 0.94 |
| Atp4b (ATPase, H+/K+ exchanging, beta polypeptide) | 1 | no change with or without drug | 0.22 | 0.84 | -0.22 | 0.96 |
| Zbtb44 (zinc finger and BTB domain containing 44) | 1 | no change with or without drug | 0.34 | -0.34 | 0.67 | 0.97 |
| Zbtb44 (zinc finger and BTB domain containing 44) | 2 | no change with or without drug | 0.67 | 0.51 | 0.45 | 1 |
| 4931414P19Rik (RIKEN cDNA 4931414P19 gene) | 1 | no change with or without drug | -0.79 | 1.69 | -1.69 | 0.87 |
| Cdk5rap3 (CDK5 regulatory subunit associated protein 3) | 1 | no change with or without drug | 0.67 | -0.84 | 1.46 | 1 |
| Clk3 (CDC-like kinase 3) | 1 | no change with or without drug | -0.9 | 1.01 | -1.46 | 0.86 |
| Brs3 (bombesin-like receptor 3) | 1 | no change with or without drug | 0 | -0.17 | 0.22 | 0.94 |
| Plk3 (polo like kinase 3) | 1 | no change with or without drug | -0.11 | 0.34 | -0.22 | 0.93 |
| Hlx (H2.0-like homeobox) | 1 | no change with or without drug | 0.45 | -0.51 | 1.01 | 0.98 |
| Taf7 (TATA-box binding protein associated factor 7) | 1 | low cell count without drug only | -1.46 | -2.19 | 0.11 | 0.81 |
| Rbms1 (RNA binding motif, single stranded interacting protein 1) | 1 | no change with or without drug | -1.12 | 0 | -1.12 | 0.84 |
| Mos (Mos proto-oncogene, serine/threonine kinase) | 1 | no change with or without drug | -0.67 | 1.35 | -1.46 | 0.88 |
| Ucn3 (urocortin 3) | 1 | no change with or without drug | -1.24 | -0.17 | -1.12 | 0.83 |
| Sh3gl2 (SH3-domain GRB2-like 2) | 1 | no change with or without drug | 0.22 | 1.85 | -0.79 | 0.96 |
| Lmntd1 (lamin tail domain containing 1) | 1 | no change with or without drug | -0.22 | 0.34 | -0.34 | 0.92 |
| Gna12 (guanine nucleotide binding protein, alpha 12) | 1 | no change with or without drug | -1.91 | -0.67 | -1.46 | 0.77 |
| Nfyb (nuclear transcription factor-Y beta) | 1 | no change with or without drug | -0.45 | -0.34 | -0.11 | 0.9 |
| Ahcyl1 (S-adenosylhomocysteine hydrolase-like 1) | 1 | no change with or without drug | 0.11 | 0.84 | -0.34 | 0.95 |
| Nat2 (N-acetyltransferase 2 (arylamine N-acetyltransferase)) | 1 | no change with or without drug | 1.12 | 0.17 | 1.12 | 1.04 |

Copied from the list:
Entry for Plk3 (polo like kinase 3) in “doxorubicin viability vs non-targeting”: 0.93
For “z-score of drug to no-drug ratio”, Mos (Mos proto-oncogene, serine/threonine kinase) reads -1.46
Entry of Brs3 (bombesin-like receptor 3) under “combined z-score class”: no change with or without drug
